25 molecules from the supplement of paper PMC10735217 can be followed below.

This is one part of the list. Single values are uncertain here, since repeats match poorly.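 In a drug-repurposing library screen, luminescence reads luciferase driven by eight TEAD-binding elements, stably integrated into human kidney-derived cells. Compounds scoring over five robust Z scores above the plate mean are called hits.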

The experiment relates to HEK293A TEAD-LUC reporter. The experiment in a line: TEAD-luciferase reporter activity (YAP activation), robust Z score vs plate; higher = stronger YAP/TEAD activation. Conditions: 24 h.

As to `COc1cc(N)c(Cl)cc1C(=O)N[C@H]1C[C@H]2CCC[C@@H](C1)N2CC(=O)O`, the TEAD-luciferase reporter activity was inactive: -2.41 (compound concentration: 200 nM), inactive: 0.422 (compound concentration: 2 uM) and inactive: 1.02 (compound concentration: 10 uM).

`CCCCCCCCCCCCCCCCCCOC[C@H](COP(=O)([O-])OCC[N+](C)(C)C)OC` [Edelfosine]: the TEAD-luciferase reporter activity is, setting by setting: (compound concentration: 200 nM) inactive: -0.624; (compound concentration: 10 uM) inactive: -0.929.

Take `COc1ccc(CN2CCCC23Cc2ccccc2CNC3=O)cc1OC` (stereo not drawn): the TEAD-luciferase reporter activity was inactive: -0.542 (compound concentration: 200 nM) and inactive: -0.755 (compound concentration: 10 uM).

As to `Cc1cc(Cl)cc(Cl)c1CN1Cc2ncccc2C1=O`, the TEAD-luciferase reporter activity is inactive: -1.56 (compound concentration: 200 nM), inactive: -1.29 (compound concentration: 2 uM) and inactive: -0.578 (compound concentration: 10 uM).

For the molecule `CC(C)(C)c1[nH]cnc1/C=c1\[nH]c(=O)/c(=C/c2ccccc2)[nH]c1=O` [plinabulin], the TEAD-luciferase reporter activity by setting is: (compound concentration: 200 nM) inactive: 3.99; (compound concentration: 2 uM) active: 9.68; (compound concentration: 10 uM) active: 8.96.

Take `C[C@@H]1CN(C(=O)c2cc3c(C(=O)OC(C)(C)C)ncn3c3ccc(Cl)cc23)C[C@H](C)N1`: the TEAD-luciferase reporter activity by setting is: (compound concentration: 200 nM) inactive: 0.289; (compound concentration: 2 uM) inactive: -0.447; (compound concentration: 10 uM) inactive: 0.713.

`NC(CC1CCCCC1)C(=O)N[C@H](CCC(=O)O)C(=O)NCC(=O)O` (stereo partly drawn): the TEAD-luciferase reporter activity was inactive: -2 (compound concentration: 200 nM), inactive: 0.243 (compound concentration: 2 uM) and inactive: 0.405 (compound concentration: 10 uM).

With `CC(=O)[C@@]12OC(C)(C)O[C@@H]1C[C@H]1[C@@H]3CCC4=CC(=O)CC[C@]4(C)[C@H]3CC[C@@]12C` [Algestone Acetonide], the TEAD-luciferase reporter activity is, setting by setting: (compound concentration: 200 nM) inactive: 0.822; (compound concentration: 2 uM) inactive: -0.476; (compound concentration: 10 uM) inactive: -0.189.

With `COc1cc(F)c(C(C)C)cc1-c1ccc(C(F)(F)F)cc1CN1C(=O)O[C@H](c2cc(C(F)(F)F)cc(C(F)(F)F)c2)[C@@H]1C` [Anacetrapib/MK-0859], the TEAD-luciferase reporter activity reads like this: (compound concentration: 200 nM) inactive: -0.546; (compound concentration: 10 uM) inactive: -0.00342.

With `COc1cc(F)c(C(C)C)cc1-c1ccc(C(F)(F)F)cc1CN1C(=O)O[C@H](c2cc(C(F)(F)F)cc(C(F)(F)F)c2)[C@@H]1C` [anacetrapib], the TEAD-luciferase reporter activity (compound concentration: 2 uM) was inactive: -1.09.

In the case of `O=c1c(-c2ccc(Cl)cc2)coc2cc(O)ccc12`, the TEAD-luciferase reporter activity runs as follows: (compound concentration: 200 nM) inactive: 1.75; (compound concentration: 2 uM) inactive: 0.0586; (compound concentration: 10 uM) active: 18.4.

Turning to `COc1ccc2c(c1)N(c1ccccc1F)C(=O)[C@]2(CCC(=O)O)NC(=O)c1cc2ccccc2cn1`, the TEAD-luciferase reporter activity runs as follows: (compound concentration: 200 nM) inactive: -0.564; (compound concentration: 2 uM) inactive: -0.221; (compound concentration: 10 uM) inactive: -0.454.

As to `O=C(O)CCCC/C=C(\c1ccccc1)c1cccnc1` [Isbogrel], the TEAD-luciferase reporter activity is inactive: -1.47 (compound concentration: 200 nM), inactive: -0.529 (compound concentration: 2 uM) and inactive: 2.47 (compound concentration: 10 uM).

Consider `O=C(NO)C1(CS(=O)(=O)c2ccc(Oc3ccc(Cl)cc3)cc2)CCOCC1` [transplant therapy, Conatus Pharmaceuticals], for which the TEAD-luciferase reporter activity reads like this: (compound concentration: 200 nM) inactive: 1.21; (compound concentration: 2 uM) inactive: 0.506; (compound concentration: 10 uM) inactive: 0.543.

For `O=C(c1ccc(C(F)(F)F)cc1)N1CCC(N2Cc3ccccc3C2=O)CC1`, the TEAD-luciferase reporter activity reads like this: (compound concentration: 200 nM) inactive: -2.54; (compound concentration: 10 uM) inactive: 0.627.

Take `CC(C)NC(=O)[C@H]1CC[C@@H](n2c(NC(=O)c3ccc(F)cc3)nc3ccc(CN4CCC(C(C)(C)O)CC4)cc32)CC1`: the TEAD-luciferase reporter activity is, setting by setting: (compound concentration: 200 nM) inactive: -0.855; (compound concentration: 2 uM) inactive: -1.54; (compound concentration: 10 uM) inactive: 0.0893.

Consider `COc1cc([C@@H]2CC[C@@H](c3cc(OC)c(OC)c(OC)c3)O2)cc(CNC(=O)N(C)O)c1OCCSc1ccc(Cl)cc1`, for which the TEAD-luciferase reporter activity runs as follows: (compound concentration: 200 nM) inactive: 0.317; (compound concentration: 2 uM) inactive: -0.0242; (compound concentration: 10 uM) inactive: 0.91.

In the case of `O=C(c1ccc2c(c1)OCO2)N1CC2(Cc3ccccc3NC2=O)C1`, the TEAD-luciferase reporter activity is inactive: -2.97 (compound concentration: 200 nM) and inactive: -1.37 (compound concentration: 10 uM).

On to `CC(C)(C)CC(=O)N1CCN(c2cc(C(F)(F)F)ccn2)CC1`, for which the TEAD-luciferase reporter activity was inactive: -0.838 (compound concentration: 200 nM), inactive: 0.282 (compound concentration: 2 uM) and inactive: -0.246 (compound concentration: 10 uM).

Turning to `Cc1nc([N+](=O)[O-])cn1-c1ccc([N+](=O)[O-])cc1` [Nitrefazole], the TEAD-luciferase reporter activity is inactive: -0.581 (compound concentration: 200 nM), inactive: -1.07 (compound concentration: 2 uM) and inactive: 0.562 (compound concentration: 10 uM).

Turning to `CC#CC(=O)N1CCC[C@H]1c1nc(-c2ccc(C(=O)Nc3ccccn3)cc2)c2c(N)nccn12` [Acalabrutinib], the TEAD-luciferase reporter activity is inactive: -0.773 (compound concentration: 200 nM), inactive: -1.43 (compound concentration: 2 uM) and inactive: 3.74 (compound concentration: 10 uM).

Regarding `CCOC(=O)C[C@@H](O)CC(O)/C=C/C1=C(c2ccc(F)cc2)c2ccccc2OC12CCCC2` (stereo partly drawn), the TEAD-luciferase reporter activity is, setting by setting: (compound concentration: 200 nM) inactive: -1.1; (compound concentration: 2 uM) inactive: -0.332; (compound concentration: 10 uM) inactive: -1.12.

With `COc1c(N2CCC/C(=C(\F)CN)C2)c(F)cc2c(=O)c(C(=O)O)cn(C3CC3)c12`, the TEAD-luciferase reporter activity runs as follows: (compound concentration: 200 nM) inactive: 0.813; (compound concentration: 2 uM) inactive: -0.822; (compound concentration: 10 uM) inactive: -0.931.

With `O=C(O)COc1cccc2c1CC[C@](O)(COC(=O)N(c1ccccc1)c1ccccc1)C2`, the TEAD-luciferase reporter activity was inactive: -0.0458 (compound concentration: 200 nM), inactive: 0.0406 (compound concentration: 2 uM) and inactive: 0.372 (compound concentration: 10 uM).

In the case of `CCCn1c(=O)c2[nH]cnc2n(-c2ccc(Cl)cc2)c1=O` [Arofylline], the TEAD-luciferase reporter activity (compound concentration: 200 nM) was inactive: -0.846, the TEAD-luciferase reporter activity (compound concentration: 2 uM) was inactive: -1.2 and the TEAD-luciferase reporter activity (compound concentration: 10 uM) is inactive: 2.26.
